In paper PMC6997366 one finds binding data, which are given here for two molecules.

Results are given in words; binding and its absence hold for the method and conditions named. Binding seen in cells or lysates may run through a third protein. Some binding calls cover weakened binding; strength is not graded here.

One assay has as its target T1, VC155-A20 (UniProt P21580).
T1 sequence: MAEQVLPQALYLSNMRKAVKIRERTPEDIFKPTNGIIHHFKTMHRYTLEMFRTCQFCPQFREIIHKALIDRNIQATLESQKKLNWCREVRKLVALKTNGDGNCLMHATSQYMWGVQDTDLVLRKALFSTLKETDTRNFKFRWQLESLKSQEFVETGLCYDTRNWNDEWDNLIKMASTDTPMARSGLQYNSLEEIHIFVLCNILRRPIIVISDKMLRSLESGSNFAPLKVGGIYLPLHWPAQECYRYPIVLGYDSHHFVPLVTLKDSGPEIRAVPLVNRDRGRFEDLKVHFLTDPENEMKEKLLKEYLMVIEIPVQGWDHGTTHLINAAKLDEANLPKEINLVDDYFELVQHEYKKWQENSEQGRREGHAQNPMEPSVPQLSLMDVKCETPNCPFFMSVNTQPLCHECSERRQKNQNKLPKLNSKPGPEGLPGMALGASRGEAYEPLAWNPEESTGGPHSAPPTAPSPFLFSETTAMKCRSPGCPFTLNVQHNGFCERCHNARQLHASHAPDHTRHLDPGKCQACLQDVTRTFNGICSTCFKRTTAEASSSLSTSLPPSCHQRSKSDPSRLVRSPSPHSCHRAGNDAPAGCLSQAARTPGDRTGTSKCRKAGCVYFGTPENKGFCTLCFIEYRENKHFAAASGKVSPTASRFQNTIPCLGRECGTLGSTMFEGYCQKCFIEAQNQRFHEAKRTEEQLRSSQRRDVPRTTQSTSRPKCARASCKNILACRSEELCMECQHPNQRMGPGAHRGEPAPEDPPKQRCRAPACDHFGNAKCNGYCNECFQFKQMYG
Nature of the assay: split reporter; BiFC in Huh7 cells transfected with VC155-A20 and VN173-PFKL plasmids (1 ug each), fixed 24 h after transfection, confocal microscopy.

Assay [1] concerns the target T2, A20 (Tumor necrosis factor alpha-induced protein 3), endogenous (human (endogenous in Huh7)) (UniProt P21580).
T2 sequence: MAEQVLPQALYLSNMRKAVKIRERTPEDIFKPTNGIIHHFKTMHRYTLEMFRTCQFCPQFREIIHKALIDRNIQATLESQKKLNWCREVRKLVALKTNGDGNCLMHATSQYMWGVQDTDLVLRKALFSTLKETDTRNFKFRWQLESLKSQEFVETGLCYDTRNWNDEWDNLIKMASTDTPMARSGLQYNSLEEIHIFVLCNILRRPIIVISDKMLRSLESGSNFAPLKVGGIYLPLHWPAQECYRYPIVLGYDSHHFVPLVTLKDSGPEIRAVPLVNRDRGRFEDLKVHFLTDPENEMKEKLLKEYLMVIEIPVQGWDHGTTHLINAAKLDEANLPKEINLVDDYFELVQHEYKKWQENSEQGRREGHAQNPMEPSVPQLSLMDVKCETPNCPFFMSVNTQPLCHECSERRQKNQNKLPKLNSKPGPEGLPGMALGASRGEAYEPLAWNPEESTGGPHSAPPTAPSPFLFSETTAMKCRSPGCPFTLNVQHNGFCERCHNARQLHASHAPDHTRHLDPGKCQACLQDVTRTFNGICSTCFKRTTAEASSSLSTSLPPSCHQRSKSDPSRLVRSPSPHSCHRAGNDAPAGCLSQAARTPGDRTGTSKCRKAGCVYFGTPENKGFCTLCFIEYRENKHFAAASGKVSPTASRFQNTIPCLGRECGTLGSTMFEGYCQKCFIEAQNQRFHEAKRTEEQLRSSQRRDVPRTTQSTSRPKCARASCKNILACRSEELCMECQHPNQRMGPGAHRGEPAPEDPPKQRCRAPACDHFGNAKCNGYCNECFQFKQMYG
Nature of the assay: co-IP; endogenous proteins, Huh7 lysate in 0.1-0.5% Nonidet P40 buffer (150 mM NaCl, 50 mM Tris-HCl, pH 7.5); anti-A20 antibody and protein G agarose at 4 °C; western blotting.

Assay [2] has as its target T2, A20 (Tumor necrosis factor alpha-induced protein 3), endogenous (human (endogenous in Huh7)). The assay is described as follows: proximity ligation; Duolink in situ assay in Huh7 cells with anti-A20 (mouse) and anti-PFKL (rabbit) antibodies; cells pretreated with MG132 for 6 h, then with or without LPS for 4 h.

B1: VN173-PFKL (enzyme, UniProt P17858 1-780)
chain: MAAVDLEKLRASGAGKAIGVLTSGGDAQGMNAAVRAVTRMGIYVGAKVFLIYEGYEGLVEGGENIKQANWLSVSNIIQLGGTIIGSARCKAFTTREGRRAAAYNLVQHGITNLCVIGGDGSLTGANIFRSEWGSLLEELVAEGKISETTARTYSHLNIAGLVGSIDNDFCGTDMTIGTDSALHRIMEVIDAITTTAQSHQRTFVLEVMGRHCGYLALVSALASGADWLFIPEAPPEDGWENFMCERLGETRSRGSRLNIIIIAEGAIDRNGKPISSSYVKDLVVQRLGFDTRVTVLGHVQRGGTPSAFDRILSSKMGMEAVMALLEATPDTPACVVTLSGNQSVRLPLMECVQMTKEVQKAMDDKRFDEATQLRGGSFENNWNIYKLLAHQKPPKEKSNFSLAILNVGAPAAGMNAAVRSAVRTGISHGHTVYVVHDGFEGLAKGQVQEVGWHDVAGWLGRGGSMLGTKRTLPKGQLESIVENIRIYGIHALLVVGGFEAYEGVLQLVEARGRYEELCIVMCVIPATISNNVPGTDFSLGSDTAVNAAMESCDRIKQSASGTKRRVFIVETMGGYCGYLATVTGIAVGADAAYVFEDPFNIHDLKVNVEHMTEKMKTDIQRGLVLRNEKCHDYYTTEFLYNLYSSEGKGVFDCRTNVLGHLQQGGAPTPFDRNYGTKLGVKAMLWLSEKLREVYRKGRVFANAPDSACVIGLKKKAVAFSPVTELKKDTDFEHRMPREQWWLSLRLMLKMLAQYRISMAAYVSGELEHVTRRTLSMDKGF
For the molecule B1, the binding result with VC155-A20 was “binds”.

B2: phosphofructokinase, liver type (PFKL), endogenous (enzyme, UniProt P17858 1-780)
chain: MAAVDLEKLRASGAGKAIGVLTSGGDAQGMNAAVRAVTRMGIYVGAKVFLIYEGYEGLVEGGENIKQANWLSVSNIIQLGGTIIGSARCKAFTTREGRRAAAYNLVQHGITNLCVIGGDGSLTGANIFRSEWGSLLEELVAEGKISETTARTYSHLNIAGLVGSIDNDFCGTDMTIGTDSALHRIMEVIDAITTTAQSHQRTFVLEVMGRHCGYLALVSALASGADWLFIPEAPPEDGWENFMCERLGETRSRGSRLNIIIIAEGAIDRNGKPISSSYVKDLVVQRLGFDTRVTVLGHVQRGGTPSAFDRILSSKMGMEAVMALLEATPDTPACVVTLSGNQSVRLPLMECVQMTKEVQKAMDDKRFDEATQLRGGSFENNWNIYKLLAHQKPPKEKSNFSLAILNVGAPAAGMNAAVRSAVRTGISHGHTVYVVHDGFEGLAKGQVQEVGWHDVAGWLGRGGSMLGTKRTLPKGQLESIVENIRIYGIHALLVVGGFEAYEGVLQLVEARGRYEELCIVMCVIPATISNNVPGTDFSLGSDTAVNAAMESCDRIKQSASGTKRRVFIVETMGGYCGYLATVTGIAVGADAAYVFEDPFNIHDLKVNVEHMTEKMKTDIQRGLVLRNEKCHDYYTTEFLYNLYSSEGKGVFDCRTNVLGHLQQGGAPTPFDRNYGTKLGVKAMLWLSEKLREVYRKGRVFANAPDSACVIGLKKKAVAFSPVTELKKDTDFEHRMPREQWWLSLRLMLKMLAQYRISMAAYVSGELEHVTRRTLSMDKGF
As to B2, the binding result in assay [1] and in assay [2] was “binds” each time.
